Values quoted from earlier work in patent publication US20040028716A1 (priority 2002, published 2004).
Where two headings read alike, the source gives them in different places. At least one compound was matched to its structure with a doubt left.

Tests used:
[1] = test system: SMC; settings: in vitro
[2] = test system: rat SMC
[3] = test system: human SMC
[4] = test system: porcine SMC
[5] = test system: SMC
[6] = test system: SMC; settings: in vivo

For `CO[C@H]1C[C@@H]2CC[C@@H](C)[C@@](O)(O2)C(=O)C(=O)N2CCCC[C@H]2C(=O)O[C@H]([C@H](C)C[C@@H]2CC[C@@H](O)[C@H](OC)C2)CC(=O)[C@H](C)/C=C(\C)[C@@H](O)[C@@H](OC)C(=O)[C@H](C)C[C@H](C)/C=C/C=C/C=C/1C` [rapamycin], the SMC proliferation [1] is listed as “inhibits”, the SMC migration [2] is listed as “inhibits” and the SMC migration [3] is listed as “inhibits”. The SMC migration [4] was “inhibits”, the SMC migration ([5]; p27 (+/−) mice) was “potent inhibitory effects” and the SMC migration ([5]; p27 (−/−) knockout (p27 null) mice) was “not”. The SMC migration ([5]; wild type mice) was “potent inhibitory effects” and the SMC proliferation [6] was “inhibits”.
